In PMC6265451:
Results are given in words; binding and its absence hold for the method and conditions named. In cells and extracts the contact can be indirect. These calls come from enrichment with a bait or labelling near it, and not all partners need be listed.

T1: Pta1-TAPS (S. cerevisiae) (UniProt Q01329)
T1 sequence: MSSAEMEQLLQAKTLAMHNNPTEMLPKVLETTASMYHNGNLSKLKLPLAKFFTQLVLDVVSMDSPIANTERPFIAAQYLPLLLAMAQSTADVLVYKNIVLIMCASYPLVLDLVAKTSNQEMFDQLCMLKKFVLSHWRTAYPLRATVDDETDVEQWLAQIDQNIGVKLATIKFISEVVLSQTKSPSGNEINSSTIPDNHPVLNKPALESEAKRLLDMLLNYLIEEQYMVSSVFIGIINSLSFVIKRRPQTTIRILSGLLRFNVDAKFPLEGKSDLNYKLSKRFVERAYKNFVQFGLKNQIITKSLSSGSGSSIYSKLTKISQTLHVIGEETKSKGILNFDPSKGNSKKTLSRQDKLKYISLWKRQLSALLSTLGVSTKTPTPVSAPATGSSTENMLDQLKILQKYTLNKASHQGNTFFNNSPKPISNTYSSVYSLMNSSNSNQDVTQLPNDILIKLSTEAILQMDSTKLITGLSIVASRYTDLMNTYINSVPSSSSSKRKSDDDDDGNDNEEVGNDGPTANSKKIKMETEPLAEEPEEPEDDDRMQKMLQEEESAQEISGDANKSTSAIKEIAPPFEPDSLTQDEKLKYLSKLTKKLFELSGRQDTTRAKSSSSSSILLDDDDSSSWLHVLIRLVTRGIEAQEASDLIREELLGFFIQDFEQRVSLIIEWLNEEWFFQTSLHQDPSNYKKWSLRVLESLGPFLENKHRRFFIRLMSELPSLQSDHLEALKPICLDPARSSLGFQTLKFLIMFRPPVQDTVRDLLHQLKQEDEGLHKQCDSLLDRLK


Target: T1, Pta1-TAPS (S. cerevisiae)
Assay: affinity purification with mass spectrometry; TAPS tandem affinity purification from tagged yeast: IgG sepharose, TEV protease elution, Streptactin resin, desthiobiotin elution; SDS-PAGE stained with SYPRO Ruby, excised bands identified by tryptic-digest mass spectrometry

Binder | binding
Fip1 (protein, UniProt P45976 1-327) MSSSEDEDDKFLYGSDSELALPSSKRSRDDEADAGASSNPDIVKRQKFDSPVEETPATARDDRSDEDIYSDSSDDDSDSDLEVIISLGPDPTRLDAKLLDSYSTAATSSSKDVISVATDVSNTITKTSDERLITEGEANQGVTATTVKATESDGNVPKAMTGSIDLDKEGIFDSVGITTIDPEVLKEKPWRQPGANLSDYFNYGFNEFTWMEYLHRQEKLQQDYNPRRILMGLLSLQQQGKLNSANDTDSNLGNIIDNNNNVNNANMSNLNSNMGNSMSGTPNPPAPPMHPSFPPLPMFGSFPPFPMPGMMPPMNQQPNQNQNQNSK | binds
Ref2 (protein, UniProt P42073 1-533) MSAPVPQLVNISHALQASTIQQIRLDMVDFNKDCKLSSIQLARIDKYIDSLQAALNQFTKDNLHIERKEKNVTEADIQLYSGLKSMYLDYLNQLIKLKHEKQHHSTPPIANDVSLDFFVNQLPKFSPEERKNYIDNLILNKNSHNRLSKMDGLVDAVINLCVLDTSVAENVRSYMKLLDTLGFQKGSNSTGTKANLKKKLASSKAKIKDSEKEKEKEKDKSKVKMKTKLKPSPLLNNDDKNSSPSPTASTSSMKKLKSGLFNKNEAKSTESLPTSSKKKLSFSKYLNKDDADMTKLGTKRSIDVDFKVNPEASTVASNIISSSTSGSSTTTVATPASSEEPLKKKTKISVQDSNVQSILRNGKPKKARISSIKFLDDSQLIKVYGDDLPNQGLQVSPTQLKKILKPFKEGEPKEIILFEDMSIKLKPLDLMFLKNTNSDDYMDISETKGGPIHCETRTPLIYRKNFNHFNPDLNKRPPREPIEFDLNGNTNSTPTIAKAFGKNSLLLRKDRGGLPYKHVPIVKRNKYPPRPVH | binds
